Article PMC7819943, “Rice protein-binding microarrays: a tool to detect cis-acting elements near promoter regions in rice”
The other results are listed elsewhere or left out.

Sequences of proteins named here, by UniProt entry; tags and fusion partners are left off.
UniProt Q0JBA9, entry or part of it: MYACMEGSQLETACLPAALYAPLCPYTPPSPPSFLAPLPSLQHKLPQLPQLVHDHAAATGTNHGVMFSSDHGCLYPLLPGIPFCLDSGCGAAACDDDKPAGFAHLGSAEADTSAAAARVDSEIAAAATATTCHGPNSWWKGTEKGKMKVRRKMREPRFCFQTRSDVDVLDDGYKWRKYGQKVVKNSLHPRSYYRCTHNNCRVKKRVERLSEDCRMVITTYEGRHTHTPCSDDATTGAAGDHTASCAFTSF

Molecular target: OsWRKY34 (Oryza sativa, UniProt Q0JBA9 1-250)
Test: protein-binding microarray (RPBM); PBS, 2% BSA, 51.3 ng/ul salmon testes DNA, 50 uM zinc acetate, 200 nM TF, 25 C, 1 h; high values mean tight binding
Settings: protein: recombinant; tags: N-terminal polyhistidine and DsRed monomer fusion (pET32a); label: CyDye5-dUTP incorporated in the synthesized complementary strand; 3' TTTTT single-stranded linker to array surface; dsDNA, one strand shown
Procedure, shortened: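 Polyhistidine-tagged DsRed fusions of transcription factors, joined at the N-terminus, were expressed in E. coli BL21-CodonPlus and isolated on Ni–NTA. They were incubated at 200 nM for 1 h at 25 °C on a custom Agilent array, double-stranded and BSA-blocked, in PBS with 2% BSA, salmon testes DNA and 50 µM zinc acetate. The binding signal is per-feature fluorescence intensity (arbitrary units) read on an Axon 4000B scanner after washing.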

Q: “TATTGGTAAAAAAGTTGACTTTTGCCATCTTTTGTGTTCTCGGAGTCACCTAGTGCAG” was tested. Which binding signal did it give?
A: 9050 fluorescence intensity (a.u.)

Q: For “TCATCAATCATTGTCACTTACTACTTTTGTCTTCGTCTCCCGGAGTCACCTAGTGCAG”, which binding signal is on record?
A: 10800 fluorescence intensity (a.u.)

Q: How did the binding signal turn out when “TTGCAAGATACCAAATTTGTTACTTTCTTTATATATTTTTCGGAGTCACCTAGTGCAG” was run?
A: 8930 fluorescence intensity (a.u.)

Q: For “AAACGTCAAAAGACTCAAAACCCAAAACCCGCGTGCTGACCGGAGTCACCTAGTGCAG”, which binding signal is on record?
A: 8030 fluorescence intensity (a.u.)

Q: How did the binding signal turn out when “TCTAATCTACGATCCGATCCCACTGTTATATTCGTTGCAACGGAGTCACCTAGTGCAG” was run?
A: 9530 fluorescence intensity (a.u.)

Q: How did the binding signal turn out when “ATCCCCAATCTTCTCAATTCGCGAATTCATCCTCTCCAGCCGGAGTCACCTAGTGCAG” was run?
A: 8060 fluorescence intensity (a.u.)

Q: With “CTTTTGACTGCCACAGTGTGTTAGGTATATGTTTGTTTCACGGAGTCACCTAGTGCAG” as the sequence, how does the binding signal read?
A: 11700 fluorescence intensity (a.u.)

Q: Which binding signal does the source give for “GAACGCGCGCGCCACCGCGCCGCCTCCGCCGCCGCCAGCGCGGAGTCACCTAGTGCAG” here?
A: 8300 fluorescence intensity (a.u.)

Q: With “TTTTTTATGGCCCTTCTTTTTATATGTCTGATTGCTATTCCGGAGTCACCTAGTGCAG” as the sequence, how does the binding signal read?
A: 9470 fluorescence intensity (a.u.)

Q: How did the binding signal turn out when “GTGTGTTTTGATCTTCCTCTCTCTAGGAAAGCTCTGTTTCCGGAGTCACCTAGTGCAG” was run?
A: 8360 fluorescence intensity (a.u.)

Q: For “GCTCCCCGCCGCGCCGTCCGTCTCCGCCGTCGACCTCTCCCGGAGTCACCTAGTGCAG”, which binding signal is on record?
A: 15100 fluorescence intensity (a.u.)

Q: With “ATTGATCACCCCATTCTCTACCATTTGTGTAGTTTTCCCACGGAGTCACCTAGTGCAG” as the sequence, how does the binding signal read?
A: 10300 fluorescence intensity (a.u.)

Q: For “GTTTTCTTTCTTTTTTTTTTCCACCTGTCGCACTGTACATCGGAGTCACCTAGTGCAG”, which binding signal is on record?
A: 11800 fluorescence intensity (a.u.)

Q: For “AAAGATTCCGTTTCTTTCGAGCCCTTTTGGTCTCGGGTGGCGGAGTCACCTAGTGCAG”, which binding signal is on record?
A: 8550 fluorescence intensity (a.u.)

Q: Which binding signal does the source give for “GGCAACAAAATTTACCTGCGTATATGTATTCGCTATATATCGGAGTCACCTAGTGCAG” here?
A: 8900 fluorescence intensity (a.u.)

Q: How did the binding signal turn out when “TACAACAAACCTAACATCAGCTACTTGTCATCGATCATCACGGAGTCACCTAGTGCAG” was run?
A: 8790 fluorescence intensity (a.u.)

Q: With “CCACCTTCGCCCTTCTAGAACCTTCCCGCGTCCGCCAATGCGGAGTCACCTAGTGCAG” as the sequence, how does the binding signal read?
A: 8190 fluorescence intensity (a.u.)

Q: For “TGTTGCGTGTTGCCGCTCCGCTTTTAGGCTCTCATTGGTGCGGAGTCACCTAGTGCAG”, which binding signal is on record?
A: 8070 fluorescence intensity (a.u.)

Q: How did the binding signal turn out when “TATCCATCATTCCATCCTCTCTCCCAGTCCCATCCTCAACCGGAGTCACCTAGTGCAG” was run?
A: 9330 fluorescence intensity (a.u.)

Q: For “CCTGTCTCTGTCCCTGTCATGTTGACTCCAACCGGGTTAACGGAGTCACCTAGTGCAG”, which binding signal is on record?
A: 9100 fluorescence intensity (a.u.)

Q: For “TCGTCGCCATCATCGTCCCCGTCGCCCTGCGCCGCTGGCGCGGAGTCACCTAGTGCAG”, which binding signal is on record?
A: 8340 fluorescence intensity (a.u.)

Q: Which binding signal does the source give for “CATATATAACTTCTACTCCTATCTATATATATCGCAAATACGGAGTCACCTAGTGCAG” here?
A: 8430 fluorescence intensity (a.u.)

Q: “GGGAAGGCGGCGATTGATTTGATTTGACCAAGATTGGTCGCGGAGTCACCTAGTGCAG” was tested. Which binding signal did it give?
A: 8090 fluorescence intensity (a.u.)

Q: “TCTCCACGAACCGGCCAAGCCCAATTCGCCGTTGAGTTCCCGGAGTCACCTAGTGCAG” was tested. Which binding signal did it give?
A: 8230 fluorescence intensity (a.u.)

Q: “CAGGGGTGGGTGTTAGCTGTTGTGCAAGAAGTGGTGTTTGCGGAGTCACCTAGTGCAG” was tested. Which binding signal did it give?
A: 10600 fluorescence intensity (a.u.)

Q: “GCCATCCAGACCCAGACCCACCCGAGACCACCACCATTATCGGAGTCACCTAGTGCAG” was tested. Which binding signal did it give?
A: 9670 fluorescence intensity (a.u.)

Q: “TTGTGTTCTGTTACTCTTATTCACCTTGGACACTGCATGACGGAGTCACCTAGTGCAG” was tested. Which binding signal did it give?
A: 10900 fluorescence intensity (a.u.)

Q: “TTCTACATTCTGTATCTTGATAATTCACTAAATTATGAACCGGAGTCACCTAGTGCAG” was tested. Which binding signal did it give?
A: 8400 fluorescence intensity (a.u.)

Q: “TTGCGTGTGTGTATGTATATCGAGCCTTGTCTCAACTCAACGGAGTCACCTAGTGCAG” was tested. Which binding signal did it give?
A: 12800 fluorescence intensity (a.u.)

Q: How did the binding signal turn out when “AGGTCAGTTCTACATGTTCTAAATGTCTCCTATATATATTCGGAGTCACCTAGTGCAG” was run?
A: 8340 fluorescence intensity (a.u.)

Q: “CGCCGCCTCGTCACCGACCCCGCCTTCCACCGCCGCTTCCCGGAGTCACCTAGTGCAG” was tested. Which binding signal did it give?
A: 8830 fluorescence intensity (a.u.)

Q: “GTTAATTGACCCCGCCCGTTCTATCCCATCGTCGCATCGACGGAGTCACCTAGTGCAG” was tested. Which binding signal did it give?
A: 9450 fluorescence intensity (a.u.)

Q: “CCATTCCGCCTCTCTCGGCCGGTCTCTCCTCGCGGGATAGCGGAGTCACCTAGTGCAG” was tested. Which binding signal did it give?
A: 8600 fluorescence intensity (a.u.)

Q: Which binding signal does the source give for “AGTTGTTCTTCTCAGCAGGTTGCTGTCATCTTAGACTTTTCGGAGTCACCTAGTGCAG” here?
A: 8410 fluorescence intensity (a.u.)

Q: For “GGTGGTGGTCTCATTGAGAAAGAGCGGTGGTGGCGGTCCGCGGAGTCACCTAGTGCAG”, which binding signal is on record?
A: 8880 fluorescence intensity (a.u.)

Q: For “CCGACTCCACCCGCGGCTTATCCCTCCTTTTTTTTTTCTTCGGAGTCACCTAGTGCAG”, which binding signal is on record?
A: 9600 fluorescence intensity (a.u.)

Q: For “CCACTTACCATGGCTGTTGTAGGCTTGTCAGGGCAACCCGCGGAGTCACCTAGTGCAG”, which binding signal is on record?
A: 8220 fluorescence intensity (a.u.)

Q: Which binding signal does the source give for “CGTGCGGCCCATAATGTGTTGGGCTGGGGCAGAAATTCCGCGGAGTCACCTAGTGCAG” here?
A: 8550 fluorescence intensity (a.u.)

Q: Which binding signal does the source give for “CCATCGCCTACCGCATTCAGGCACGTGCACGCCGCCCACCCGGAGTCACCTAGTGCAG” here?
A: 8290 fluorescence intensity (a.u.)

Q: With “GTTTGACACCGTTGACTTTTTTAAATATGTTTGACCGTTTCGGAGTCACCTAGTGCAG” as the sequence, how does the binding signal read?
A: 25000 fluorescence intensity (a.u.)

Q: With “GCTCACGCCCTTTGCCTTGGCCACACGCCAGCGAATGACCCGGAGTCACCTAGTGCAG” as the sequence, how does the binding signal read?
A: 8290 fluorescence intensity (a.u.)

Q: For “TGTAGGGAAAATACGAAACTTCCTTACTGTTCAGCTTTTTCGGAGTCACCTAGTGCAG”, which binding signal is on record?
A: 8860 fluorescence intensity (a.u.)
